Results on two substances are retold here after doi:10.1101/2020.06.09.20127068.

Sequences of proteins named here, by UniProt entry; tags and fusion partners are left off.
UniProt P30279: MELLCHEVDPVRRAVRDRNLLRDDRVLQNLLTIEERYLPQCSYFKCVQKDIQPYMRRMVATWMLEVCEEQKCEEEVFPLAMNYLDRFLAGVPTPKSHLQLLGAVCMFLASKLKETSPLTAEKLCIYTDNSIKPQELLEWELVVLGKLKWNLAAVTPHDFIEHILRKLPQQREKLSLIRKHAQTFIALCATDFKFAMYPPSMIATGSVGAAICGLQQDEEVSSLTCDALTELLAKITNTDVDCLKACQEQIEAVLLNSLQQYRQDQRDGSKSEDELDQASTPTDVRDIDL
UniProt Q13568: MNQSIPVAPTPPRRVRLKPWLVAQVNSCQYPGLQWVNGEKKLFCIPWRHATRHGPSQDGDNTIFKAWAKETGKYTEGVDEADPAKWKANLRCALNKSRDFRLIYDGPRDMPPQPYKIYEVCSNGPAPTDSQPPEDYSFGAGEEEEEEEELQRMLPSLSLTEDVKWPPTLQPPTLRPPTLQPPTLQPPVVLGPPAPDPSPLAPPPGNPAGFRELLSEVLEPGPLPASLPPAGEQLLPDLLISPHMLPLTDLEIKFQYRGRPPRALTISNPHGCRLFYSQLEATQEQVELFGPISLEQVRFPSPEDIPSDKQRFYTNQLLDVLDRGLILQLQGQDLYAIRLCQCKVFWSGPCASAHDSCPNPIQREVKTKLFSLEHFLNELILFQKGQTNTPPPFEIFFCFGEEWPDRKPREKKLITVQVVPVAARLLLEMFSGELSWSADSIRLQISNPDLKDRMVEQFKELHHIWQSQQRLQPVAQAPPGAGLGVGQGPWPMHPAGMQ

These are yes or no findings as the source states them, for the method shown. In cells and extracts the contact can be indirect. Some binding calls cover weakened binding; strength is not graded here.

The target in this assay is T1, FBXL8 (human (endogenous in MCF7 and MDA-MB231)) (UniProt Q96CD0).
T1 sequence: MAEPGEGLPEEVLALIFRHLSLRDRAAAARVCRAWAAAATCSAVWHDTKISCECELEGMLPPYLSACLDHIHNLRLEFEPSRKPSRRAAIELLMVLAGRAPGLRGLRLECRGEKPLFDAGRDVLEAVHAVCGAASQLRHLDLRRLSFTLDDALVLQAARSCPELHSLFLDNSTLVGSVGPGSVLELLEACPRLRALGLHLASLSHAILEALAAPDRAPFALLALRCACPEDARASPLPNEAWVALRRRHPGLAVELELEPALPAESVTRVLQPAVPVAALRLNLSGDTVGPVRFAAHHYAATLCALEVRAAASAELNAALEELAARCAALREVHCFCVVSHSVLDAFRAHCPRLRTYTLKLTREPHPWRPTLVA
Description: co-IP.

With “CCND2 (Cyclin D2) (from UniProt P30279 1-289)”, the binding result is reported as “binds”.

In the case of “IRF5 (Interferon Regulatory Factor 5) (from UniProt Q13568 1-498)”, the binding result is reported as “binds”.
